From the supplement of paper PMC10849652
This is one part of the list.

The chains behind the UniProt entries cited, without tags or fusion partners. Where a name states a change or a piece, a line headed by the entry shows the natural chain unless it says otherwise.
UniProt Q9H5J0: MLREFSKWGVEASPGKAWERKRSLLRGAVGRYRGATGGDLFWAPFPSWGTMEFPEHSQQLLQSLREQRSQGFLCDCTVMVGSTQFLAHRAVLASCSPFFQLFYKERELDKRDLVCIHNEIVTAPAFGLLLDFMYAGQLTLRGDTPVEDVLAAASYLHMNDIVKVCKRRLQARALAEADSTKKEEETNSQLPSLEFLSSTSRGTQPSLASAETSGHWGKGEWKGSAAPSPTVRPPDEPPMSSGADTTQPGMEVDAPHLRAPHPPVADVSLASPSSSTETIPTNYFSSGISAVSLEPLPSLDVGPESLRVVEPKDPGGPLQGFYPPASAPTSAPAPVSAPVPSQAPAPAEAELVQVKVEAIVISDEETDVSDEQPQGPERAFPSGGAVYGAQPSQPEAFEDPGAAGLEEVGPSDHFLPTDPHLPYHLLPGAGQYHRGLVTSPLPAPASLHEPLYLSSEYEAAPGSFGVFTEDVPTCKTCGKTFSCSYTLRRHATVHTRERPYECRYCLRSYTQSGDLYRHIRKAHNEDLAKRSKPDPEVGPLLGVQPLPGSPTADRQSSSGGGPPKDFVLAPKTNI
UniProt O76080: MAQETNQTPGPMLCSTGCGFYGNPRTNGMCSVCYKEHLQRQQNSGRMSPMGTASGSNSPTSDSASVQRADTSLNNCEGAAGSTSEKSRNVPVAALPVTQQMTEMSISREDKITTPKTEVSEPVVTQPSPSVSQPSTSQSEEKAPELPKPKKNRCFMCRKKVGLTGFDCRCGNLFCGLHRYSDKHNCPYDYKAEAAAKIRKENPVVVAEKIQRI
UniProt Q96JP5: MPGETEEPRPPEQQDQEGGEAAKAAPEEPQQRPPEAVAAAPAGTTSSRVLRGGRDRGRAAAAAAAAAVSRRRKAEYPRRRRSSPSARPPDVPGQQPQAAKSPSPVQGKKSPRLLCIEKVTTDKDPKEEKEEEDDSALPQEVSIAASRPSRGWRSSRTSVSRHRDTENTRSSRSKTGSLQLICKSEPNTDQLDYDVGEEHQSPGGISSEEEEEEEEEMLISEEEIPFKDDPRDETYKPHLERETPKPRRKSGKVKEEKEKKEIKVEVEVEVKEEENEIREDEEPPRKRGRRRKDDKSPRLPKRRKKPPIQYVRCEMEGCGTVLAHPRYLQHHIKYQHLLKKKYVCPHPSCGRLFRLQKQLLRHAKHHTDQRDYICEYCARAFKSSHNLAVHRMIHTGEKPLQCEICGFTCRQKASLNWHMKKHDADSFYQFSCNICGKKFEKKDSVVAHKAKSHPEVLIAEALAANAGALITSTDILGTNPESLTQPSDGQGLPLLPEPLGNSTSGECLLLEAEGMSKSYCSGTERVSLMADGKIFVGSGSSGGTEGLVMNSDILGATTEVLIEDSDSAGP
UniProt Q8N680: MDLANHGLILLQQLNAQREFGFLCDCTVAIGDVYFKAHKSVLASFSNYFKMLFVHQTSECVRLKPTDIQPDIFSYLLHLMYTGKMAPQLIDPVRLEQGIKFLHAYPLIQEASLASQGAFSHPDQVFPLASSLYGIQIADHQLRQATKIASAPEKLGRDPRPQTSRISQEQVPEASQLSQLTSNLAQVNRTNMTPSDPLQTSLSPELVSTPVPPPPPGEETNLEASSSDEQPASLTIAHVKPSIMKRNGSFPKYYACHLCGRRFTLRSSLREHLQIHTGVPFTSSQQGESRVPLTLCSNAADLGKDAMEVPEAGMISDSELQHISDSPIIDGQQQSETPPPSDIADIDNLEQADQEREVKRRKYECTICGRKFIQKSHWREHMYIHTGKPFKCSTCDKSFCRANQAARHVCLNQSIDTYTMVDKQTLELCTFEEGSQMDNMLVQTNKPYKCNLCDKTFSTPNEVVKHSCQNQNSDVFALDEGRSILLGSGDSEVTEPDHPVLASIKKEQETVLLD
UniProt O43542: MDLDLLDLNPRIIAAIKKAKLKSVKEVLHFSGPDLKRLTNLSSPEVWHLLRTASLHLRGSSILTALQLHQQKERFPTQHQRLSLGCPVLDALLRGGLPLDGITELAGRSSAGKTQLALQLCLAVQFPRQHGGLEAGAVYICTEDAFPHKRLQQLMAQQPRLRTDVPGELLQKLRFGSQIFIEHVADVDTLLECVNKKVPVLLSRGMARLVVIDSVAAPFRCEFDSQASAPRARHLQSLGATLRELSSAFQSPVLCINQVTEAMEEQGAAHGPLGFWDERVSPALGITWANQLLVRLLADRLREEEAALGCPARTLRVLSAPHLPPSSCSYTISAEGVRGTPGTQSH
UniProt O95365: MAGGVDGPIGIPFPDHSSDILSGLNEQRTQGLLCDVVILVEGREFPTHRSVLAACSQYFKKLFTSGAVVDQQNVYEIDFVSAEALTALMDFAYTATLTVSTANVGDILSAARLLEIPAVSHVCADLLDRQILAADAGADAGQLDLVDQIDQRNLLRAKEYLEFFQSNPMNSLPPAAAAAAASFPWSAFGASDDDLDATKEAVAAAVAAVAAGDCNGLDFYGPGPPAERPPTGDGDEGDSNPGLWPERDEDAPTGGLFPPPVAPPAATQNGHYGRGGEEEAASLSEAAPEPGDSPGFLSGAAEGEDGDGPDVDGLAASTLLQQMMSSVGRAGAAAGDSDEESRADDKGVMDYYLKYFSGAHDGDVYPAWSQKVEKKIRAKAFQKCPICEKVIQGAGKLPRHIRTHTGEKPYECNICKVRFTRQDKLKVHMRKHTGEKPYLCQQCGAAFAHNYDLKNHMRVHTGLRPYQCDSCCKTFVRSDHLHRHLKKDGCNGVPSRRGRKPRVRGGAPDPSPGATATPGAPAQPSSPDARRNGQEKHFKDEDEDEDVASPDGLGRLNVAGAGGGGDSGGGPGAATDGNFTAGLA
UniProt Q8IY57: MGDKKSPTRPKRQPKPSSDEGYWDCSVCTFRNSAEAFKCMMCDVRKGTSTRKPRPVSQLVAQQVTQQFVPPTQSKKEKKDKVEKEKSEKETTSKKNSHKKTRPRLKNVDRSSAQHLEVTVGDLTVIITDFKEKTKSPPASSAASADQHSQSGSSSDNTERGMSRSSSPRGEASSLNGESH
UniProt Q13426: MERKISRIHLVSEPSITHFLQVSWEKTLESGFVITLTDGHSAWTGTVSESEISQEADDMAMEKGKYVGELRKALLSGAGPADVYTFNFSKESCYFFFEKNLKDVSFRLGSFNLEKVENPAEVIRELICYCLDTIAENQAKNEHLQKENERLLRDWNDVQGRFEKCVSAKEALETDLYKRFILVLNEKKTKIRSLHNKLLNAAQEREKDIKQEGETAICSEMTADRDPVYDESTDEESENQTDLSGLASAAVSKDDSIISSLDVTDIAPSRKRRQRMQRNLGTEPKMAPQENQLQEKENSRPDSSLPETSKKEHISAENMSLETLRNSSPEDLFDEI
UniProt Q8N4Q0: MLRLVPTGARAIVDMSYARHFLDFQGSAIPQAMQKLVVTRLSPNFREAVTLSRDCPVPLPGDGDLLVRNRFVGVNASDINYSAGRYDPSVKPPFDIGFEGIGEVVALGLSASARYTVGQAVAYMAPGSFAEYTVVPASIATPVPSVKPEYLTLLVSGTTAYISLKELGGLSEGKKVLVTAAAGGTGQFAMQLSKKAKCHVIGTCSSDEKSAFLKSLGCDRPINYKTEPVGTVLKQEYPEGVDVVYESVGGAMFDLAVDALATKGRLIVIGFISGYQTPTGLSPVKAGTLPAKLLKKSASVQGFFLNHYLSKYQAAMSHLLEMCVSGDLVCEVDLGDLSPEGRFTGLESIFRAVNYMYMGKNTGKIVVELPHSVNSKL
UniProt Q96QU8: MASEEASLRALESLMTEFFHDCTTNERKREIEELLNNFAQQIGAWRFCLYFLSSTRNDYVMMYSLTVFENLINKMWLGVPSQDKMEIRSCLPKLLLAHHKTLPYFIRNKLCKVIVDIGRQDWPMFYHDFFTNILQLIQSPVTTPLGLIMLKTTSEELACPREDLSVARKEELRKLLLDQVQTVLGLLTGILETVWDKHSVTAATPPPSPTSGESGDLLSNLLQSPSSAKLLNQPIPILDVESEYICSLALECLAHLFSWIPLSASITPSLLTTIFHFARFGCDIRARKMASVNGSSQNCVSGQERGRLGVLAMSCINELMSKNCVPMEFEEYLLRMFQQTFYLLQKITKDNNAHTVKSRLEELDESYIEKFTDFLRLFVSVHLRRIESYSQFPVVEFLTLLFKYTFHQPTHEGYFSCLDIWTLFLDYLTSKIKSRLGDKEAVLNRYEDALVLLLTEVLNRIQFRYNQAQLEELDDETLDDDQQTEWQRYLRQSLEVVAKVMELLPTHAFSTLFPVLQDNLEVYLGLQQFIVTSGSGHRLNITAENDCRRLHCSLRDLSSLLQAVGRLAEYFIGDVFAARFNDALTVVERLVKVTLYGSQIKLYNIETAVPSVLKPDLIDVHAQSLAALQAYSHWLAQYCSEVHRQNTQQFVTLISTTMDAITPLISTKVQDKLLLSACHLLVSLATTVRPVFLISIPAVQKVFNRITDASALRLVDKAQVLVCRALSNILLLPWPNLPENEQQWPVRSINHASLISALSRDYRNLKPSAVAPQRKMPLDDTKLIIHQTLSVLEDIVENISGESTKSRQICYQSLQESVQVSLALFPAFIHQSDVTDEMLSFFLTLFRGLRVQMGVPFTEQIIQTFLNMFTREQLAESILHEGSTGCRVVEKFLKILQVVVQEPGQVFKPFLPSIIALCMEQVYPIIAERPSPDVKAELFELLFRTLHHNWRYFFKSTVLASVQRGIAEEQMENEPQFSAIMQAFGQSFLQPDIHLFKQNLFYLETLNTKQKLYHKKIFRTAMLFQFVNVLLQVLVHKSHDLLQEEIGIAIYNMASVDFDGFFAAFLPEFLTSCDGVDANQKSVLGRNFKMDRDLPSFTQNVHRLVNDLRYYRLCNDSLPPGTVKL
UniProt Q9H6S0: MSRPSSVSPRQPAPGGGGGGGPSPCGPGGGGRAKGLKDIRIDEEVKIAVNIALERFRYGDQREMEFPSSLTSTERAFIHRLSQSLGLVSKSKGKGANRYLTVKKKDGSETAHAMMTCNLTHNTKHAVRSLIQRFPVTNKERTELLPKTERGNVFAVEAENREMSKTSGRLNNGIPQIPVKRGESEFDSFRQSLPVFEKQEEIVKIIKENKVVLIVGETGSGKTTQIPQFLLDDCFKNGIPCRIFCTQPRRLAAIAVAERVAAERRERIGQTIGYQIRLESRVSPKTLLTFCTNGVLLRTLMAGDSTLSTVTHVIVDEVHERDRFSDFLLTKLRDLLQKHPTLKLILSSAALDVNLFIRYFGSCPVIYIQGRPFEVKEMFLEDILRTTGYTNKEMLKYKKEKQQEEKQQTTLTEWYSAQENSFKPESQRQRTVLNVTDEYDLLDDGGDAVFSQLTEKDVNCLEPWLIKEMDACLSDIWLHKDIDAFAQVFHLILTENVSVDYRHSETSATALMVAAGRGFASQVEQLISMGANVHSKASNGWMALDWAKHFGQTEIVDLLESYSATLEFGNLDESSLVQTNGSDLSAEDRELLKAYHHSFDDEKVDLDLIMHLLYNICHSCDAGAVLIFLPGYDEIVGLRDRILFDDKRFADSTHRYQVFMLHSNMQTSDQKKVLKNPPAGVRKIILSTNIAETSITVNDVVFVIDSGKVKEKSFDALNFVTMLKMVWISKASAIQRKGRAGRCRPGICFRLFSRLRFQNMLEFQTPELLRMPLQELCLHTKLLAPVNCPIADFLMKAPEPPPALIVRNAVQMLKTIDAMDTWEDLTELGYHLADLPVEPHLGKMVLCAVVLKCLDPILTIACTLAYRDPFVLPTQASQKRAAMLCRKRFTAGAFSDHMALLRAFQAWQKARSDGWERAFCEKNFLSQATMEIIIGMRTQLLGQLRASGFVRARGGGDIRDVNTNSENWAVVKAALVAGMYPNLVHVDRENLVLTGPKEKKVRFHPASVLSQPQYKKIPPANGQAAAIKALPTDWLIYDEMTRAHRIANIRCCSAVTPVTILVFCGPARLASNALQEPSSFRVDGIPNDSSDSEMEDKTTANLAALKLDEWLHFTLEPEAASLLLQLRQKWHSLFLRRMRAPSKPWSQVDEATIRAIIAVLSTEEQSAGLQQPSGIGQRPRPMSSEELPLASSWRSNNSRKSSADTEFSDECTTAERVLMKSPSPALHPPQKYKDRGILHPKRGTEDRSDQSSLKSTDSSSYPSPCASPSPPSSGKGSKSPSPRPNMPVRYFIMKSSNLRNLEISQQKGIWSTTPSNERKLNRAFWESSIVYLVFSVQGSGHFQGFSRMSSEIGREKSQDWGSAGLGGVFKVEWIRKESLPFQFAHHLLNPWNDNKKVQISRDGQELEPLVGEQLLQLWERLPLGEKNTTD
UniProt Q8N5P1: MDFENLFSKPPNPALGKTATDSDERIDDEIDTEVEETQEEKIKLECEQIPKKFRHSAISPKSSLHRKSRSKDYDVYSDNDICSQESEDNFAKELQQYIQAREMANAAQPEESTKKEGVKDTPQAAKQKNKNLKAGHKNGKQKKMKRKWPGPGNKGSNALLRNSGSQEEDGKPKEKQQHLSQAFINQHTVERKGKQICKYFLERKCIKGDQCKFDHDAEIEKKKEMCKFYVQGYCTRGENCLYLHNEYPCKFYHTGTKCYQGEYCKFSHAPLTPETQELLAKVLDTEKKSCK

What was measured:
Experiment in all cases: log2 fold change, soluble protein after heating vs DMSO (PISA); higher = thermal stabilisation; K562 lysate, 10 uM; active = over 0.2 and 3.5 SD of the protein, either way, in both replicates (recomputed)
[1] = compound: CN1CC[C@H](c2c(O)cc(O)c3c(=O)cc(-c4ccccc4Cl)oc23)[C@H](O)C1 [alvocidib]
Summary of the method: (§1)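 K562 pellets were dounce-homogenised in PBS pH 7.4 with 1 mM MgCl2, and the crude extract at 1 mg/mL protein was treated with 10 μM compound for 30 min. Aliquots were heated for 3 min across 48°C-58°C, pooled, and brought to 0.5% NP-40 at 4°C; soluble protein was the supernatant after 21,000xg for 90 min. Soluble protein was quantified by TMTpro 16plex LC-MS/MS with channel sums equalised, and reported as log2 fold change in thermal stability against DMSO controls, with values from duplicates.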

[2] = compound: CN1CCc2c(c3ccccc3n2Cc2ccc(C(=O)NO)cc2)C1 [Tubastatin A]
Summary of the method: as §1

[3] = compound: CNC(=O)C1=CC=CC=C1NC2=NC(=NC=C2Cl)NC3=C(C=C(C=C3)N4CCOCC4)OC
Summary of the method: as §1

[4] = compound: CNC(=O)c1ccc(Nc2ncc(C(F)(F)F)c(NCc3nccnc3N(C)S(C)(=O)=O)n2)cc1 [defactinib]
Summary of the method: as §1

[5] = compound: CNc1nc(-c2ccc3c(N)n[nH]c3c2)cc(N2C[C@@H](C(=O)NC3CCCCC3)CC[C@H]2C)n1
Summary of the method: as §1

[6] = compound: COC(=O)N[C@@H](C)CNc1nccc(-c2cn(C(C)C)nc2-c2cc(Cl)cc(NS(C)(=O)=O)c2F)n1 [encorafenib]
Summary of the method: as §1

[7] = compound: COC(=O)[C@H](CCSC)NC(=O)C1=C(C=C(C=C1)NC[C@H](CS)N)C2=CC=CC=C2
Summary of the method: as §1

[8] = compound: COc1cc2nc(-c3cc(F)ccc3O)nc(N[C@@H]3CNC[C@H]3C(C)(C)O)c2cc1OC
Summary of the method: as §1

[9] = compound: CS(=O)(=O)CCNCc1ccc(-c2ccc3ncnc(Nc4ccc(OCc5cccc(F)c5)c(Cl)c4)c3c2)o1 [lapatinib]
Summary of the method: as §1

[10] = compound: CS(=O)(=O)N1CCN(Cc2cc3nc(-c4cccc5[nH]ncc45)nc(N4CCOCC4)c3s2)CC1 [pictilisib]
Summary of the method: as §1

[11] = compound: C[C@@H](Oc1cc(-c2cnn(C3CCNCC3)c2)cnc1N)c1c(Cl)ccc(F)c1Cl [crizotinib]
Summary of the method: as §1

[12] = compound: C[C@H](C1=CC=C(C=C1)C(=O)NC2=C3C=CNC3=NC=C2)N
Summary of the method: as §1

[13] = compound: C[C@H](Nc1ncnc2nc[nH]c12)c1cc2cccc(Cl)c2c(=O)n1-c1ccccc1 [duvelisib]
Summary of the method: as §1

[14] = compound: Cc1cc(Nc2cc(CN3CCOCC3)c3nc(C)c(Cc4ccc(Cl)cc4F)n3n2)n[nH]1 [gandotinib]
Summary of the method: as §1

[15] = compound: Cc1cc(Nc2cc(N3CCN(C)CC3)nc(Sc3ccc(NC(=O)C4CC4)cc3)n2)n[nH]1 [tozasertib]
Summary of the method: as §1

[16] = compound: Cc1ccc(-n2nc(C(C)(C)C)cc2NC(=O)Nc2ccc(OCCN3CCOCC3)c3ccccc23)cc1 [doramapimod]
Summary of the method: as §1

[17] = compound: Cc1ccc(NC(=O)c2ccc(CN3CC[C@H](N(C)C)C3)c(C(F)(F)F)c2)cc1Nc1nccc(-c2cncnc2)n1 [bafetinib]
Summary of the method: as §1

[18] = compound: Cc1cccc(CC(=O)N2CCc3c2ccc(-c2cn(C)c4ncnc(N)c24)c3F)n1
Summary of the method: as §1

[19] = compound: COc1cc(Nc2ncc3c(n2)-c2ccc(Cl)cc2C(c2c(F)cccc2OC)=NC3)ccc1C(=O)O [alisertib]
Summary of the method: as §1

[20] = compound: COc1cc2ncnc(Nc3ccc(F)c(Cl)c3)c2cc1OCCCN1CCOCC1 [gefitinib]
Summary of the method: as §1

Measured: log2 fold change

ZBTB3 (UniProt Q9H5J0)
inactive: [1] -0.169 | [2] 0.027 | [3] -0.02 | [4] -0.108 | [5] -0.055 | [6] 0.081 | [7] -0.079 | [8] -0.15 | [9] 0.017 | [10] -0.247 | [11] -0.004 | [12] 0.102 | [13] -0.053 | [14] -0.058 | [15] 0.045 | [16] 0.057 | [17] 0.125 | [18] 0.24

ZFAND5 (UniProt O76080)
inactive: [1] -0.026 | [2] 0.141 | [3] -0.055 | [4] -0.038 | [5] 0.067 | [19] 0.02 | [8] 0.042 | [20] -0.058 | [9] 0.092 | [10] 0.029 | [11] -0.018 | [12] -0.051 | [13] -0.056 | [14] 0.022 | [16] 0.032 | [17] 0.11 | [18] 0.078

ZFP91 (UniProt Q96JP5)
inactive: [1] 0.026 | [2] -0.079 | [3] 0 | [4] 0.024 | [5] 0.082 | [6] 0.047 | [7] -0.041 | [19] -0.009 | [8] -0.028 | [20] 0.028 | [9] 0.013 | [10] 0.045 | [11] -0.068 | [12] 0.109 | [13] 0.034 | [14] -0.059 | [15] -0.005 | [16] 0.017 | [17] -0.067 | [18] -0.079

ZFYVE16 (UniProt Q7Z3T8)
inactive: [1] -0.028 | [2] 0.003 | [3] 0.01 | [4] 0.022 | [5] 0.005 | [6] 0.045 | [7] -0.045 | [19] -0.013 | [8] 0.004 | [20] 0.003 | [9] 0.019 | [10] 0.004 | [11] -0.004 | [12] -0.084 | [13] 0.001 | [14] 0.016 | [15] -0.012 | [16] -0.004 | [17] -0.027 | [18] 0.078

ZBTB2 (UniProt Q8N680)
inactive: [1] -0.005 | [2] 0.043 | [3] -0.093 | [4] 0.031 | [5] 0.02 | [6] -0.011 | [7] 0.118 | [19] -0.027 | [20] -0.012 | [10] -0.213 | [11] 0.039 | [12] 0.118 | [13] 0.013 | [14] 0.001 | [15] -0.005 | [16] -0.028 | [17] -0.22 | [18] -0.113

XPOT (UniProt O43592)
inactive: [1] 0.004 | [2] -0.133 | [3] -0.004 | [4] 0.011 | [5] -0.042 | [6] 0.005 | [7] -0.094 | [19] 0 | [8] 0.005 | [20] 0.01 | [9] -0.033 | [10] 0.013 | [11] -0.051 | [12] -0.044 | [13] 0.022 | [14] -0.086 | [15] -0.007 | [16] 0 | [17] -0.04 | [18] 0.057

XRCC3 (UniProt O43542)
inactive: [1] -0.123 | [2] -0.026 | [3] -0.059 | [4] 0.18 | [5] 0.093 | [19] -0.048 | [20] -0.024 | [10] -0.164 | [11] 0 | [12] 0.036 | [13] -0.004 | [14] 0.005 | [16] 0.013 | [17] -0.024 | [18] 0.071

ZBTB7A (UniProt O95365)
inactive: [1] -0.146 | [2] -0.116 | [3] 0.01 | [4] 0.067 | [5] 0.044 | [6] 0.336 | [7] -0.108 | [8] -0.097 | [9] -0.155 | [10] 0.022 | [11] -0.236 | [12] -0.084 | [13] 0.014 | [14] 0.045 | [15] 0.236 | [16] 0.043 | [17] 0.165 | [18] 0.004

YAF2 isoform 5 (UniProt Q8IY57)
inactive: [1] 0.107 | [2] -0.027 | [3] 0.133 | [4] -0.029 | [5] 0.083 | [6] -0.033 | [7] -0.067 | [8] 0.026 | [9] -0.066 | [10] 0.071 | [11] -0.009 | [12] 0.177 | [13] -0.008 | [14] -0.034 | [15] -0.139 | [16] 0.005 | [17] 0.043 | [18] -0.224

XRCC4 (UniProt Q13426)
inactive: [1] -0.034 | [2] -0.021 | [3] -0.046 | [4] 0.015 | [5] -0.042 | [6] 0.025 | [7] -0.018 | [19] -0.009 | [8] -0.009 | [20] 0.029 | [9] -0.002 | [10] -0.014 | [11] 0.086 | [12] -0.084 | [13] 0.008 | [14] 0.052 | [15] 0.026 | [16] -0.089 | [17] -0.028 | [18] 0.038

YARS (UniProt P54577)
inactive: [1] 0.031 | [2] -0.038 | [3] -0.024 | [4] -0.007 | [5] -0.009 | [6] -0.023 | [7] 0.11 | [19] 0 | [8] 0.018 | [20] -0.022 | [9] -0.029 | [10] 0.01 | [11] -0.025 | [12] -0.014 | [13] -0.021 | [14] -0.057 | [15] -0.023 | [16] -0.02 | [17] 0.016 | [18] -0.002

ZADH2 (UniProt Q8N4Q0)
inactive: [1] -0.025 | [2] -0.055 | [3] -0.067 | [4] 0.075 | [5] 0.22 | [19] 0.008 | [8] -0.042 | [20] -0.169 | [9] -0.231 | [10] -0.028 | [11] -0.057 | [12] -0.163 | [13] 0.1 | [14] 0.014 | [16] -0.052 | [17] -0.118 | [18] 0.097

XPO6 (UniProt Q96QU8)
inactive: [1] -0.058 | [2] -0.09 | [3] -0.048 | [4] -0.025 | [5] -0.05 | [6] -0.006 | [7] 0.021 | [19] 0.036 | [8] 0.031 | [20] 0.067 | [9] -0.012 | [10] -0.069 | [11] -0.086 | [12] -0.158 | [13] 0.06 | [14] 0.005 | [15] 0.072 | [16] 0.034 | [17] -0.105 | [18] 0.175

YAE1 (UniProt Q9NRH1)
inactive: [1] -0.005 | [2] 0.062 | [3] 0.079 | [4] 0.092 | [5] 0.001 | [6] -0.12 | [7] -0.021 | [19] -0.038 | [20] 0.096 | [10] -0.029 | [11] 0.02 | [12] -0.034 | [13] -0.014 | [14] -0.005 | [15] -0.048 | [16] -0.036 | [17] -0.122 | [18] 0.003

YTHDC2 (UniProt Q9H6S0)
inactive: [1] 0.05 | [2] -0.084 | [3] 0.038 | [4] 0.048 | [5] -0.008 | [6] 0.04 | [7] 0.05 | [19] -0.026 | [8] -0.029 | [20] -0.004 | [9] -0.029 | [10] -0.007 | [11] -0.042 | [12] 0.023 | [13] 0.032 | [14] -0.013 | [15] -0.03 | [16] 0.007 | [17] -0.022 | [18] -0.066

ZDHHC3 isoform 2 (UniProt Q9NYG2)
inactive: [1] 0.004 | [2] -0.015 | [3] -0.037 | [4] 0.063 | [5] -0.079 | [6] 0.066 | [7] -0.058 | [19] -0.021 | [8] -0.051 | [20] -0.031 | [9] -0.05 | [10] -0.013 | [11] -0.108 | [12] -0.129 | [13] 0.12 | [14] 0.114 | [15] -0.03 | [16] 0.022 | [17] -0.112 | [18] 0.192

ZC3H8 (UniProt Q8N5P1)
inactive: [1] -0.002 | [2] 0.04 | [3] 0.046 | [4] -0.006 | [5] 0.01 | [6] -0.013 | [7] -0.016 | [19] -0.027 | [8] 0.035 | [20] 0.033 | [9] -0.066 | [10] 0.007 | [11] -0.009 | [12] 0.056 | [13] 0.012 | [14] -0.039 | [15] 0.057 | [16] -0.016 | [17] -0.043 | [18] -0.041
